These are yes or no findings as the source states them, for the method shown. Binding seen in cells or lysates may run through a third protein. Some results given as binding are weak or reduced against the parent protein; the word gives no strength.
Experiments:
[1] = target: epidermal growth factor receptor (EGFR) (human (endogenous in MCF-7 and MDA-MB-231)) (UniProt P00533); assay: proximity ligation; in situ PLA (Duolink) on fixed, Triton-permeabilised MCF-7 or MDA-MB-231 cells; EGF 25 ng/mL, 15 min (or time course), 37 °C; cells in part treated with cytochalasin D, siRNAs/shRNA, CA- or DN-plasmids (FAK, c-Src, Rac1, RhoA), CD99CRIII3 or CD99-Fc
[2] = target: epidermal growth factor receptor (EGFR) (human (endogenous in MCF-7 and MDA-MB-231)) (UniProt P00533); assay: proximity ligation; in situ PLA on MCF-7 cells treated with EGF together with CD99CRIII3

B1: Gab1 (protein, UniProt Q13480 1-694)
chain: MSGGEVVCSGWLRKSPPEKKLKRYAWKRRWFVLRSGRLTGDPDVLEYYKNDHAKKPIRIIDLNLCQQVDAGLTFNKKEFENSYIFDINTIDRIFYLVADSEEEMNKWVRCICDICGFNPTEEDPVKPPGSSLQAPADLPLAINTAPPSTQADSSSATLPPPYQLINVPPHLETLGIQEDPQDYLLLINCQSKKPEPTRTHADSAKSTSSETDCNDNVPSHKNPASSQSKHGMNGFFQQQMIYDSPPSRAPSASVDSSLYNLPRSYSHDVLPKVSPSSTEADGELYVFNTPSGTSSVETQMRHVSISYDIPPTPGNTYQIPRTFPEGTLGQTSKLDTIPDIPPPRPPKPHPAHDRSPVETCSIPRTASDTDSSYCIPTAGMSPSRSNTISTVDLNKLRKDASSQDCYDIPRAFPSDRSSSLEGFHNHFKVKNVLTVGSVSSEELDENYVPMNPNSPPRQHSSSFTEPIQEANYVPMTPGTFDFSSFGMQVPPPAHMGFRSSPKTPPRRPVPVADCEPPPVDRNLKPDRKVKPAPLEIKPLPEWEELQAPVRSPITRSFARDSSRFPMSPRPDSVHSTTSSSDSHDSEENYVPMNPNLSSEDPNLFGSNSLDGGSSPMIKPKGDKQVEYLDLDLDSGKSTPPRKQKSSGSGSSVADERVDYVVVDQQKTLALKSTREAWTDGRQSTESETPAKSVK
In the case of B1, the binding [1] is reported as “binds” and the binding [2] is reported as “no binding (condition: cells co-treated with CD99CRIII3)”.
